Data taken from patent publication US20140005417A1, “WATER-INSOLUBLE COLORING COMPOUND, INK, RESIST COMPOSITION FOR COLOR FILTER, AND THERMAL TRANSFER RECORDING SHEET” (CANON KABUSHIKI KAISHA, priority 2011, published 2014).

How the values were obtained:
[1] = Saturation evaluation of ink image samples; details: ink bar-coated on paper (Bar No. 10); for c* with bar coater No. 10: c* = {(a*)^2+(b*)^2}^1/2
[2] = Color tone evaluation of ink image samples (chromaticity L*a*b*); details: ink (17 parts compound in 120 parts styrene) bar-coated on paper; interpolated to L* of 60

Structure (SMILES)	saturation evaluation with bar coater No. 10 [1]	c* with bar coater No. 10 [1]	a* at L* = 60 [2]	b* at L* = 60 [2]
CCN(CC)c1ccc2c(c1)Oc1cc(N(CC)CC)ccc1C21OC(=O)c2ccccc21 [(1), reference compound]	A (c* is 80 or more (the saturation is excellent))	88.9	86.2	−34.3
Nc1c(Oc2ccccc2)cc(O)c2c1C(=O)c1ccccc1C2=O [(2), reference compound]	B (c* is 70 or more and less than 80 (the saturation is good))	76.9	66.1	−1.7
Cc1ccc(/N=N/c2c(O)c(C(=O)O)cc3ccccc23)c(S(=O)(=O)O)c1 [(3), reference compound]	C (c* is less than 70 (the saturation is poor))	67.2	64.0	−9.6
CC(=O)Nc1c(C)c(N=c2ccc3c(-c4ccccc4S(=O)(=O)O)c4ccc(Nc5c(C)c(NC(C)=O)c(C)c(NC(C)=O)c5C)cc4oc-3c2)c(C)c(NC(C)=O)c1C [(11)]	A (c* is 80 or more (the saturation is excellent))	84.5	80.1	−16.3
CCOC(=O)c1ccccc1C(=O)Nc1c(C)cc(C)c(N=c2ccc3c(-c4ccccc4S(=O)(=O)O)c4ccc(Nc5c(C)cc(C)c(NC(=O)c6ccccc6C(=O)OCC)c5C)cc4oc-3c2)c1C [(12)]	A (c* is 80 or more (the saturation is excellent))	83.9	80.8	−15.8
CC(=O)Nc1c(C)cc(C)c(N=c2ccc3c(-c4ccccc4S(=O)(=O)O)c4ccc(Nc5c(C)c(NC(C)=O)c(C)c(NC(C)=O)c5C)cc4oc-3c2)c1C [(13)]	A (c* is 80 or more (the saturation is excellent))	84.0	80.2	−16.0
CCc1ccc(NC(C)=O)c(CC)c1N=c1ccc2c(-c3ccccc3S(=O)(=O)O)c3ccc(Nc4c(CC)ccc(NC(C)=O)c4CC)cc3oc-2c1 [(14)]	A (c* is 80 or more (the saturation is excellent))	83.5	79.9	−15.7
CCc1ccc(NC(C)=O)c(CC)c1Nc1ccc2c(-c3ccccc3S(=O)(=O)O)c3ccc(=Nc4c(C)ccc(NC(C)=O)c4C)cc-3oc2c1 [(15)]	A (c* is 80 or more (the saturation is excellent))	84.4	80.5	−15.7
CC(=O)Nc1ccc(C)c(N=c2ccc3c(-c4ccccc4S(=O)(=O)O)c4ccc(Nc5c(C(C)C)ccc(NC(C)=O)c5C(C)C)cc4oc-3c2)c1C [(16)]	A (c* is 80 or more (the saturation is excellent))	85.2	79.2	−16.4
CCOc1cc(C)c(N=c2ccc3c(-c4ccccc4S(=O)(=O)O)c4ccc(Nc5c(C)cc(OCC)c(NC(C)=O)c5C)cc4oc-3c2)c(C)c1NC(C)=O [(18)]	A (c* is 80 or more (the saturation is excellent))	84.6	81.2	−15.5
C=C(C)C(=O)Nc1c(C)cc(C)c(N=c2ccc3c(-c4ccccc4S(=O)(=O)O)c4ccc(Nc5c(C)cc(C)c(NC(=O)C(=C)C)c5C)cc4oc-3c2)c1C [(21)]	A (c* is 80 or more (the saturation is excellent))	82.1	78.6	−16.0
Cc1cc(C)c(NC(=O)c2cccnc2)c(C)c1N=c1ccc2c(-c3ccccc3S(=O)(=O)O)c3ccc(Nc4c(C)cc(C)c(NC(=O)c5cccnc5)c4C)cc3oc-2c1 [(22)]	A (c* is 80 or more (the saturation is excellent))	81.7	77.9	−16.5
CCCCCCCCCCCCCCCCCC(=O)Nc1c(C)cc(C)c(N=c2ccc3c(-c4ccccc4S(=O)(=O)O)c4ccc(Nc5c(C)cc(C)c(NC(=O)CCCCCCCCCCCCCCCCC)c5C)cc4oc-3c2)c1C [(23)]	A (c* is 80 or more (the saturation is excellent))	80.9	79.6	−17.2
CC(=O)Nc1c(C)cc(C)c(N=c2ccc3c(-c4ccccc4S(=O)(=O)O)c4ccc(Nc5c(C)cc(C)c(NC(C)=O)c5C)cc4oc-3c2)c1C [Compound (5)]	A (c* is 80 or more (the saturation is excellent))	85.2	80.8	−16.2
CCC(=O)Nc1c(C)cc(C)c(N=c2ccc3c(-c4ccccc4S(=O)(=O)O)c4ccc(Nc5c(C)cc(C)c(NC(=O)CC)c5C)cc4oc-3c2)c1C [Compound (6)]	A (c* is 80 or more (the saturation is excellent))	85.6	80.5	−16.0
CCCC(=O)Nc1c(C)cc(C)c(N=c2ccc3c(-c4ccccc4S(=O)(=O)O)c4ccc(Nc5c(C)cc(C)c(NC(=O)CCC)c5C)cc4oc-3c2)c1C [Compound (7)]	A (c* is 80 or more (the saturation is excellent))	85.1	81.4	−16.3
Cc1cc(C)c(NC(=O)C(C)C)c(C)c1N=c1ccc2c(-c3ccccc3S(=O)(=O)O)c3ccc(Nc4c(C)cc(C)c(NC(=O)C(C)C)c4C)cc3oc-2c1 [Compound (8)]	A (c* is 80 or more (the saturation is excellent))	83.5	81.6	−15.8
Cc1cc(C)c(NC(=O)c2ccccc2)c(C)c1N=c1ccc2c(-c3ccccc3S(=O)(=O)O)c3ccc(Nc4c(C)cc(C)c(NC(=O)c5ccccc5)c4C)cc3oc-2c1 [Compound (10)]	A (c* is 80 or more (the saturation is excellent))	82.5	78.9	−15.9

Some compounds share one wording; it may come from a single statement.
